Test results from patent US20060051835A1, “Pael receptor, cells and animal expressing pael receptor and method of screning remedy for parkinson's disease” (priority 2001, published 2006).
No constants are given. Whether binding was seen depends on the method and setting. Binding seen in cells or lysates may run through a third protein. Some entries that bind do so weakly or less than the wild type. For some of these results: Tags and fused reporters may be left off the sequences shown.

Protein sequences, listed by entry. Tags and fused reporters are not part of them. Residues count along the entry.
UniProt P60604, residues 2-165: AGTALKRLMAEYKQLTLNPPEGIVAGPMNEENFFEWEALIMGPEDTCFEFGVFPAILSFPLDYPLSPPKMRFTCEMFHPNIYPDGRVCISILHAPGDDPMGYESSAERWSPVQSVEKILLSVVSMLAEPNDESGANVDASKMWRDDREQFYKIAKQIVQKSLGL
UniProt O60260: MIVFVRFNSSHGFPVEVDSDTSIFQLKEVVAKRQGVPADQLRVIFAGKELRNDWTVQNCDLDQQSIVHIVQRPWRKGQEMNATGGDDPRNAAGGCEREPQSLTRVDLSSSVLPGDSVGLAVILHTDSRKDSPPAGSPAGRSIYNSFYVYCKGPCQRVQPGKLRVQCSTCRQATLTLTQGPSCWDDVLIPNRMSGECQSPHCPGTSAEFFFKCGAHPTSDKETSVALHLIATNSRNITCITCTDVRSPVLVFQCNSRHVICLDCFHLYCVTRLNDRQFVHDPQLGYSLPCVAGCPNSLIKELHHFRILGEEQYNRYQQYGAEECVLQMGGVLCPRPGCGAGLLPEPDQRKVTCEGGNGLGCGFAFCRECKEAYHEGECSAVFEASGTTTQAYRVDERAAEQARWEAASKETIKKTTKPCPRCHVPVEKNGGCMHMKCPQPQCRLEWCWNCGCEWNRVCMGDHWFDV

Experiments:
[1] = target: Myc-UBC7 (human) (UniProt P60604); assay: co-immunoprecipitation from 293T cells (FIG. 5)
[2] = target: T1, Myc-tagged UBC6 (human) (UniProt Q9Y385); assay: co-immunoprecipitation from 293T cells (FIG. 5)
T1 sequence (looked up): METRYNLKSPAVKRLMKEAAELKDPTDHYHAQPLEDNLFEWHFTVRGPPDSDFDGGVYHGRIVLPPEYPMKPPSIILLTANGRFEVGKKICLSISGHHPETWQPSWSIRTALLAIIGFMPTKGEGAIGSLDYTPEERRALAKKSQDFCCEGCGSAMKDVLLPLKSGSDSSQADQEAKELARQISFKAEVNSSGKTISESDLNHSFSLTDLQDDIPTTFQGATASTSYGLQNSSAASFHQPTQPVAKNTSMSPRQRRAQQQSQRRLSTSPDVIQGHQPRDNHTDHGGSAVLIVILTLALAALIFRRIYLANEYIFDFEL

[3] = target: Myc-UBC7 (human) (UniProt P60604); assay: summary of the co-immunoprecipitation of FIG. 5
[4] = target: T1, Myc-tagged UBC6 (human); assay: summary of the co-immunoprecipitation of FIG. 5
[5] = target: Myc-UBC7 (human) (UniProt P60604); assay: co-immunoprecipitation from 293T cells (FLAG-IP, anti-Myc Western blot)
[6] = target: T1, Myc-tagged UBC6 (human); assay: as above
[7] = target: T2, human Pael receptor (human) (UniProt O15354); assay: summary of the co-immunoprecipitation experiments of Examples 2 to 4
T2 sequence: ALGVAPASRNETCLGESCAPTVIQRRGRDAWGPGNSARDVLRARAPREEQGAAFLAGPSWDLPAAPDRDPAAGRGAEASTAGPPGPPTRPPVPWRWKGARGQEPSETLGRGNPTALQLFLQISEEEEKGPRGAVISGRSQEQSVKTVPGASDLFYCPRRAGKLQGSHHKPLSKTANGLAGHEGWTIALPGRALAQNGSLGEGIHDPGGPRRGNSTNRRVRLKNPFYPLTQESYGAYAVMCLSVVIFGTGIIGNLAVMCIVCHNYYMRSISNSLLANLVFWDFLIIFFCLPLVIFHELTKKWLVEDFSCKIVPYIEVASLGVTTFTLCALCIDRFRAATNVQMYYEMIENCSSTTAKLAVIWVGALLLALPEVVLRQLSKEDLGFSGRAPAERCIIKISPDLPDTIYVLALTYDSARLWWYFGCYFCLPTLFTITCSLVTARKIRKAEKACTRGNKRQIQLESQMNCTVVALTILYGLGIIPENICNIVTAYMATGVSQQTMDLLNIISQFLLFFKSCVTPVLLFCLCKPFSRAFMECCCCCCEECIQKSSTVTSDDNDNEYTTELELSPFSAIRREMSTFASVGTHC

[8] = target: T2, human Pael receptor (human); assay: summary of the filing's two-hybrid and co-immunoprecipitation experiments
[9] = target: T3, human Pael receptor-FLAG (human) (UniProt O15354); assay: co-immunoprecipitation from 293T lysate with anti-Parkin polyclonal antibodies, Western blot
T3 sequence: T2 sequence

[10] = target: T2, human Pael receptor (human); assay: co-immunoprecipitation from human brain and SH-SY5Y lysate with anti-Parkin antisera, Western blot with anti-Pael receptor monoclonal antibodies

binding [1]	binding [2]	binding [3]	binding [4]	binding [5]	binding [6]	binding [7]	binding [8]	binding [9]	binding [10]	Substance
binds	binds	binds	binds	binds	binds					FLAG-tagged Parkin (Wild type) (from UniProt O60260 1-465) (enzyme)
						binds	binds	binds	binds	human Parkin (from UniProt O60260 1-465) (enzyme)
